In PubChem BioAssay AID540256 (National Center for Advancing Translational Sciences (NCATS), 2011):
About 3,700 (1.2%) of roughly 300,000 compounds were called active. This list was built around the results that the source calls inconclusive (neither active nor inactive); the mix of calls is not that of the screen. The call rests on the fitted dose curve; tested in HEK293 cells. A potency beside an inconclusive call is a rough fit, not a confirmed value.

Assay: qHTS for Inhibitors of binding or entry into cells for Lassa Virus; further: nearly all actives have a fitted effect of over 50% in size
Conditions: Lassa virus pseudotype entry inhibition, cell reporter; series mostly up to 37.9 µM
Potency means the concentration at half of the fitted maximal effect.

SMILES	Potency
COc1ccc(-n2nc(C(=O)NCC(=O)N3CCC4(CC3)OCCO4)c3ccccc3c2=O)cc1Cl	inconclusive: 6.51 µM [activator, single point]
CCN(CC)CC(O)c1ccc2ccc3ccc(O)cc3c2c1 (stereo not given)	inconclusive: 35.5 µM [inhibitor, single point]
CCCCCCCCCCCCCCCCCCNc1ccn(C2OC(COP(=O)(O)OCC3OC(n4cc(F)c(=O)[nH]c4=O)CC3O)C(O)C2O)c(=O)n1 (stereo not given)	inconclusive: 0.708 µM [inhibitor, full curve]
c1ccc2sc(Nc3nc4cc5c(cc4s3)OCO5)nc2c1	inconclusive: 0.461 µM [activator, full curve, poor fit]
COc1ccc(C2=CC(c3cc(OC)c(OC)c(OC)c3)NC(=S)N2)cc1 (stereo not given)	inconclusive: 22.4 µM [inhibitor, single point]
COc1cccc(CN(C)C(=O)c2[nH]c(C)c(C(C)=O)c2C)c1OC	inactive
CC(C)C(=O)NNC(=O)CSc1nc(C2CCCCC2)nc2ccccc12	inactive
CCOC(=O)Cn1nnc(-c2ccccc2)n1	inactive
CC(C)(c1ccccc1)c1ccc(OCCN2CCCC2)cc1	inconclusive: 7.08 µM [inhibitor, partial curve, poor fit]
COc1cccc(NC(=O)N2CCOCC2)c1	inactive
O=C(Nc1cccc2ccccc12)c1ccc(Cn2cc(Cl)cn2)cc1	inactive
CC(C)CNC(=S)NNC(=O)c1csc2c1CCCC2	inactive
O=C(CCCCCn1c(=S)[nH]c2ccc(N3CCOCC3)cc2c1=O)NCc1ccc(Cl)cc1	inconclusive: 15.8 µM [inhibitor, single point]
NC(=O)c1ccsc1NC(=O)COC(=O)Cc1c[nH]c2ccccc12	inconclusive: 2.82 µM [inhibitor, full curve, poor fit]
Cc1ccc(-c2cc(C(=O)N3CCN(c4ncccn4)CC3)c3ccccc3n2)cc1	inactive
S=C(c1ccccc1)N(c1ccccc1)c1ccccc1	inconclusive: 20 µM [inhibitor, single point]
COc1ccc(-c2cc(C(=O)OCC(=O)N3CCOCC3)c3ccccc3n2)cc1	inactive
CCc1ccc(NC(=O)Cn2c(=O)n(CCCC(=O)NCc3ccccc3OC)c(=O)c3ccccc32)cc1	inactive
O=C1C2CCCN2C(=S)N1c1ccc(Cl)cc1 (stereo not given)	inconclusive: 35.5 µM [inhibitor, single point]
CC(C)N(C(=O)N1CCN(c2ccnc3cc(Cl)ccc23)CC1)C(C)C	active: 11.2 µM
CC1CC(OCC(O)CN2CCCCC2C)CC(C)(C)C1 (stereo not given)	inconclusive: 2.82 µM [inhibitor, partial curve]
CCCc1cc2c(=O)c(-c3ccc4c(c3)OCCO4)coc2cc1OS(C)(=O)=O	inconclusive: 1.3 µM [activator, full curve, poor fit]
O=C(COC(=O)c1ccccc1Nc1ccc(SC(F)F)cc1)NC1CC1	inactive
CCOC(=O)c1cc(-c2ccccc2)n(CCC(=O)Nc2ccc(OC)c(Cl)c2)c1C	inconclusive: 12.6 µM [inhibitor, single point]

Three entries from above, sorted by count of non-hydrogen atoms, low to high.
SMILES	Potency
c1ccc2sc(Nc3nc4cc5c(cc4s3)OCO5)nc2c1	inconclusive: 0.461 µM [activator, full curve, poor fit]
COc1ccc(C2=CC(c3cc(OC)c(OC)c(OC)c3)NC(=S)N2)cc1 (stereo not given)	inconclusive: 22.4 µM [inhibitor, single point]
COc1ccc(-n2nc(C(=O)NCC(=O)N3CCC4(CC3)OCCO4)c3ccccc3c2=O)cc1Cl	inconclusive: 6.51 µM [activator, single point]

2 neighbouring entries out of the list so far:
SMILES	Potency
O=C1C2CCCN2C(=S)N1c1ccc(Cl)cc1 (stereo not given)	inconclusive: 35.5 µM [inhibitor, single point]
CC(C)N(C(=O)N1CCN(c2ccnc3cc(Cl)ccc23)CC1)C(C)C	active: 11.2 µM

The list goes on:

SMILES	Potency
Cc1nn(Cc2ccc(C(=O)Nc3ccc(C(=O)OC(C)C)cc3)o2)c(C)c1Cl	inconclusive: 14.6 µM [inhibitor, partial curve, poor fit]
COc1ccccc1N1CCN(C2=Nc3cccc4cccc2c34)CC1	inconclusive: 15.8 µM [inhibitor, single point]
O=C(N/N=C/c1cn(CCOc2ccccc2)c2ccccc12)c1ccncc1	inconclusive: 1.41 µM [activator, full curve, poor fit]
Cc1ccc(NC(=O)CSc2ncccc2C(=O)Oc2ccccc2Cl)cc1Cl	inactive
Cc1ccc(-n2c(=O)c3sccc3n(CC(=O)NCC3CCCO3)c2=O)cc1F (stereo not given)	inconclusive: 2.24 µM [inhibitor, partial curve, poor fit]
CCC(CC)C(=O)c1c[nH]c(C(=O)NCc2cccnc2)c1	inconclusive: 8.91 µM [inhibitor, partial curve]
Cc1nc(Nc2cccc(Cl)c2)c2oc3ccccc3c2n1	inconclusive: 35.5 µM [inhibitor, single point]
COc1ccc([C@H]2C[C@H](O)[C@@H](n3cc(COC(=O)c4ccccc4)nn3)CN2CC2CCCCC2)cc1	inconclusive: 9.95 µM [inhibitor, full curve, poor fit]
CCOC(=O)Nc1ccc(N2CCOCC2)c(S(=O)(=O)Nc2ccc(Cl)cc2)c1	inconclusive: 17.8 µM [inhibitor, single point]
Cc1ccc(C(C)C)c(OCCNC(=S)Nc2cccc3ccccc23)c1	inactive
Cc1cc(C)n(CCc2nc(-c3ccc(C(C)(C)C)cc3)cs2)n1	inconclusive: 10 µM [inhibitor, partial curve, poor fit]
O=C(CS(=O)(=O)c1ccc(F)cc1)Nc1nnc(-c2ccccc2Cl)o1	inactive
O=C(O)c1ccc(Nc2ccc(F)c(F)c2)c([N+](=O)[O-])c1	inconclusive: 1.26 µM [inhibitor, single point]
CCOC(=O)c1sc(NC(=O)c2ccccc2)cc1C	inconclusive: 0.461 µM [activator, single point]
O=C(N/C(=C/c1ccc([N+](=O)[O-])cc1)C(=O)N1CCOCC1)c1ccco1	inactive
CCOc1ccc(CC(=O)NCCS(=O)(=O)N2CCN(c3ccccc3OC)CC2)cc1	inconclusive: 12.6 µM [inhibitor, partial curve, poor fit]
CCS(=O)(=O)N1CCc2cc(C(=O)N3CCN(c4ccccc4)CC3)ccc21	inactive
Cc1c(C(=O)Nc2ccccc2)oc2c1C(=O)CC(C)(C)C2	inactive
O=C(CN(Cc1ccccc1)S(=O)(=O)c1ccc(Br)cc1)NCc1ccco1	inactive
CCOCCc1nnc(NC(=O)c2cccs2)s1	inconclusive: 0.891 µM [activator, full curve, poor fit]
CCOc1ncccc1C(=O)OCC(=O)Nc1cccc(S(N)(=O)=O)c1	inconclusive: 6.31 µM [inhibitor, full curve, poor fit]
O=C(CCCc1ccccc1)NCCS(=O)(=O)N1CCN(c2ccc(F)cc2)CC1	inactive
Cc1cc(C)nc(NS(=O)(=O)c2ccc(N/C=C/C(=O)c3ccc(Cl)c(Cl)c3)cc2)n1	inactive
O=[N+]([O-])c1ccc(Cl)c(S(=O)(=O)Nc2cccc(-c3ccc(N4CCOCC4)nn3)c2)c1	inactive

SMILES	Potency
Cc1ccc(C)c(NC(=O)c2ccc(=O)n(Cc3ccc(F)cc3)c2)c1	inactive
COc1ccc(C(CC(=O)Nc2nccs2)C(C)C)cc1 (stereo not given)	inactive
CCCCN(CC)S(=O)(=O)c1ccc(C(=O)N=c2sc3cc(NC(C)=O)ccc3n2C)cc1	inactive
COC(=O)N1C(C=CC=Cc2ccc(OC)cc2)=Cc2ccccc2C1CC(C)=O (stereo not given)	inconclusive: 0.0596 µM [inhibitor, full curve, poor fit]
C#CCCOC(=O)N1C2=NC3=C(C(=O)N(Cc4ccc5c(c4)OCO5)C3=O)C3N(C)c4ccccc4[C@]23C[C@H]1CO (stereo not given in full)	inconclusive: 1.33 µM [inhibitor, single point]
O=C(Cc1cccs1)Nc1nnc(SCc2cccc3ccccc23)s1	inactive
Cc1ccc(S(=O)(=O)N2CCN(C(=O)N3CCCC3)CC2)cc1	inconclusive: 4.47 µM [inhibitor, full curve]
CCN(C(=O)c1ccc(=O)n(C)n1)c1c(N)n(Cc2ccccc2)c(=O)[nH]c1=O	inactive
Cc1ccc(CNC(=O)c2cc(S(=O)(=O)N3CCCC(C)C3)cn2C)cc1 (stereo not given)	inactive
COC(=O)c1cc(C(=O)OC)cc(N2C(=O)CC(Sc3nc(C)cc(C)n3)C2=O)c1 (stereo not given)	inactive
N#C/C(=C\c1ccc(OCc2ccccc2)cc1)C(=O)Nc1nc2c(s1)CCN(Cc1ccccc1)C2	inactive
COc1ccc(-n2c(SCC#N)nc3ccccc3c2=O)cc1	inactive
Cc1cccc2nc(CSc3ccccc3C(=O)O)cn12	inconclusive: 35.5 µM [inhibitor, single point]
Cc1cccc(Nc2nc(Nc3cccc(C)c3)nc(N3CCOCC3)n2)c1	inconclusive: 1.26 µM [inhibitor, full curve, poor fit]
CC(=O)[C@H]1CCC2C3CC=C4C[C@@H](OS(=O)(=O)O)CC[C@]4(C)C3CC[C@@]21C (stereo not given in full)	inconclusive: 1.83 µM [activator, partial curve, poor fit]
Cc1cc(C)n(-c2ccc(F)cc2CN2CCN(C3CCCC3)C(CCO)C2)n1 (stereo not given)	inactive
Cc1cccc(N2CCN(C(=O)c3cccc(N4C(=O)C5CC=CC(C)C5C4=O)c3)CC2)c1C (stereo not given)	inconclusive: 32.6 µM [inhibitor, single point]
CC(C)Cc1nc(N2CCN(C(=O)C(C)C)CC2)c(C#N)c2c1CCC2	inconclusive: 35.5 µM [inhibitor, partial curve, poor fit]
Cc1ccc(S(=O)(=O)N(CC(=O)N/N=C/c2ccccc2C(=O)O)c2cc(Cl)cc(Cl)c2)cc1	inconclusive: 8.91 µM [inhibitor, partial curve, poor fit]
COc1ccc(NC2=C(NCCO)C(=O)c3ccccc3C2=O)cc1	inconclusive: 23.1 µM [inhibitor, partial curve, poor fit]
CCN(CC)c1ccc(NC(=O)COc2ccc(C#N)cc2)cc1S(=O)(=O)Nc1ccc(OC)cc1	inconclusive: 29.1 µM [inhibitor, single point]
CC(C)CCNC(=O)c1ccc(Cn2c(=O)c3cccn3c3cccnc32)cc1	inactive
